Some of the results follow. These are raw signals, not scaled to a control.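 In the initial screen, polymyxin B was used at a concentration that permeabilizes Salmonella's outer membrane but not its inner membrane. Maximum growth was set by DMSO wells with or without polymyxin B. Since plates varied, data were ranked per plate, and compounds giving the lowest OD600 advanced as hits.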
System: Salmonella enterica serovar Typhimurium SL1344
Test: bacterial growth OD600 after 18 h with compound and polymyxin B; higher = more bacterial growth (less inhibition)
Settings: 50 µM, Mueller-Hinton broth

Row | SMILES | bacterial growth OD600 (polymyxin B 0.75 µg/mL) | bacterial growth OD600 (polymyxin B 1 µg/mL)
1 | CCCN(CC1CC1)C(=O)CC1(c2ccc(-c3ccccc3)cc2)CC(=O)N(C2CC2)C1=O (centres undefined) | 0.041 | 
2 | O=C(NCC1CCCN(C(=O)c2cccc3nccnc23)C1)c1ccccc1Cl (centres undefined) |  | 0.891
3 | COc1ccccc1NC(=O)Nc1ccnn1C1CCN(Cc2ccccn2)CC1 | 0.819 | 
4 | Cc1nn(-c2ccc(F)cc2)c(C)c1CN1CC[C@@H](N2CCC(O)CC2)[C@H](O)C1 |  | 1.22
5 | Cc1ccccc1-c1cnnc(NCC[C@@H]2C[C@@H]3C=C[C@H]2C3)n1 | 0.4 | 
6 | COc1cc(CN2CCN(CC3CCCCC3)CC2CCO)cc(OC)c1 (centres undefined) |  | 0.757
7 | C=CCNC(=O)c1coc(COc2cccc(F)c2F)n1 |  | 0.737
8 | COc1cc(=O)n2c(c1C(=O)N(C)Cc1nonc1C)CCN(C(=O)CC1CCCCC1)CC2 | 0.977 | 
9 | COC(=O)CNC(=O)CC(c1cccc(Cl)c1)c1ccccc1O (centres undefined) |  | 0.858

— the supplement of paper PMC12889115
